Reference: patent US8557763B2, “Synthetic peptides that enhance tight junction permeability” (Alba Therapeutics Corporation, priority 2007, dated 2013)
At least one peptide structure holds a part that was inferred or is arguable (an end, a ring closure or a residue). Where no end group is shown, it is not given here.

Test system: HeLa cells
Experiment: Assay of cytoskeletal (actin) rearrangement, fluorescence microscopy
Assay type: cell-based
Details: 60 minutes, FIG. 11
Method: FIG. 10 is a fluorescence microscopy analysis showing the effects of FCIGRL (SEQ ID NO:1) and F-(Allyl)GIGRL (SEQ ID NO:2) on actin rearrangement in HeLa cells after 15 minutes and 60 minutes.
Gliadin treated with the peptidases pepsin and trypsin (termed PT-gliadin or PTG) induces a cytoskeletal arrangement in CaCo2 cells grown in monolayers. The rearrangement can be visualized using a Nikon-TE2000 epifluorescence microscope and a 40× objective and Alexa Fluor 555 conjugated phalloidin (Invitrogen, Carlsbad, Calif.), which binds specifically to F-actin. Exposure times were identical for control and agonist treated samples. The figures were generated using Adobe Photoshop CS2 v 9.0.2. The concentration of agonist was as indicated. Tight junction agonists can be identified by their ability to induce the cytoskeletal rearrangement as shown by the effects of peptide FCIGRL, a known tight junction agonist. FIGS. 3-6 and 8-11 show the cytoskeletal rearrangements induced by exemplary tight junction agonists of the invention, including with respect to the distribution of F-actin and the tight junction protein ZO-1.

In the case of “FCIGRL [SEQ ID NO: 1, Phe−Cys−Ile−Gly−Arg−Leu, reference compound]”, the “actin rearrangement in HeLa cells” value is reported as “actin cytoskeletal rearrangement to the borderline of cells”.
